No constants are given. Whether binding was seen depends on the method and setting. For some assays here: In cells and extracts the contact can be indirect. Some results given as binding are weak or reduced against the parent protein; the word gives no strength.
Columns and labels:
[1] = target: C-terminal 270-kDa fragment of recombinant polydom (mouse) (UniProt A2AVA0); test: anti-FLAG affinity purification of recombinant polydom, SDS-PAGE and N-terminal sequencing
[2] = target: C-terminal 270-kDa fragment of recombinant polydom (mouse) (UniProt A2AVA0); test: co-precipitation from spent medium with anti-FLAG beads or Ni-NTA beads, immunoblotting

binding [1]: binds
binding [2]: binds
B1: N-terminal 115-kDa fragment of recombinant polydom (protein, not shown: small tags and cut ends)
chain: WTNFQPVAPSLNFSFRLFPEASPGALGRLAVPPASSEEEAAGSKVERLGRAFRSRVRRLRELSGSLELVFLVDESSSVGQTNFLNELKFVRKLLSDFPVVSTATRVAIVTFSSKNNVVARVDYISTSRAHQHKCALLSREIPAITYRGGGTYTKGAFQQAAQILRHSRENSTKVIFLITDGYSNGGDPRPIAASLRDFGVEIFTFGIWQGNIRELNDMASTPKEEHCYLLHSFEEFEALARRALHEDLPSGSFIQEDMARCSYLCEAGKDCCDRMASCKCGTHTGQFECICEKGYYGKGLQHECTACPSGTYKPEASPGGISTCIPCPDVSHTSPPGSTSPEDCVCREGYQRSGQTCEVVHCPALKPPENGFFIQNTCKNHFNAACGVRCRPGFDLVGSSIHLCQPNGLWSGTESFCRVRTCPHLRQPKHGHISCSTAEMSYNTLCLVTCNEGYRLEGSTRLTCQGNAQWDGPEPRCVERHCATFQKPKGVIISPPSCGKQPARPGMTCQLSCRQGYILSGVREVRCATSGKWSAKVQTAVCKDVEAPQISCPNDIEAKTGEQQDSANVTWQVPTAKDNSGEKVSVHVHPAFTPPYLFPIGDVAITYTATDSSGNQASCTFYIKVIDVEPPVIDWCRSPPPIQVVEKEHPASWDEPQFSDNSGAELVITSSHTQGDMFPHGETVVWYTATDPSGNNRTCDIHIVIKGSPCEVPFTPVNGDFICAQDSAGVNCSLSCKEGYDFTEGSTEKYYCAFEDGIWRPPYSTEWPDCAIKRFANHGFKSFEMLYKTTRCDDMDLFKKFSAAFETTLGNMVPSFCNDADDIDCRLEDLTKKYCIEYNYNYENGFAIGPGGWGAGNRLDYSYDHFLDVVQETPTDVGKARSSRIKRTVPLSDPKIQLIFNITASVPLPEERNDTLELENQQRLIKTLETITNRLKSTLNKEPMYSFQLASETVVADSNSLETEKAFLFCRPGSVLRGRMCVNCPLGTSYSLEHSTCESCLMGSYQDEEGQLECKLCPPRTHTEYLHSRSVSECKAQCKQGTYSSSGLETCESCPLGTYQPEFGSRSCLLCPETTTTVKRGAVDISACGVPCPVGEFSRSGLTPCYPCPRDYYQPNAGKSFCLACPFYGTTTITGATSITDCSSFSSTFSAAEESIVPL

Source: patent publication US20150086557A1, “NOVEL INTEGRIN alpha9 beta1 LIGAND AND USES THEREOF” (OSAKA UNIVERSITY, priority 2012, published 2015)
